Our source for the binding values is PMC3121794.

Amino acid sequences for entries named in this document (tags omitted). A change or cut given only in a name is not applied to a line headed by its entry. Chains listed by the source or under a name are the forms on record and can include a tag or linker.
UniProt P30052: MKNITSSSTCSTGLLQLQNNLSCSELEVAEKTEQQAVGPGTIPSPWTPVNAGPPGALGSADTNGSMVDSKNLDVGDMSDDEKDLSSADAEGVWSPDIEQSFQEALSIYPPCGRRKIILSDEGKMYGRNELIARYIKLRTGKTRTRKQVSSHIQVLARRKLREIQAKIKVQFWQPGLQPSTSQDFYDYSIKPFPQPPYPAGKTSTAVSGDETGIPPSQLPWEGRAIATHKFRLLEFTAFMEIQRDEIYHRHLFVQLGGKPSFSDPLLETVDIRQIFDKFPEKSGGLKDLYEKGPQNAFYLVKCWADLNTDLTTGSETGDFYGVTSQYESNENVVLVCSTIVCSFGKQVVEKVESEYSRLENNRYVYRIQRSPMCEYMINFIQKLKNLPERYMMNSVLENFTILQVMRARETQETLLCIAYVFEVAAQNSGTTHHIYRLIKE
3xFLAG-Sd mNLS^N+C (P30052, form named): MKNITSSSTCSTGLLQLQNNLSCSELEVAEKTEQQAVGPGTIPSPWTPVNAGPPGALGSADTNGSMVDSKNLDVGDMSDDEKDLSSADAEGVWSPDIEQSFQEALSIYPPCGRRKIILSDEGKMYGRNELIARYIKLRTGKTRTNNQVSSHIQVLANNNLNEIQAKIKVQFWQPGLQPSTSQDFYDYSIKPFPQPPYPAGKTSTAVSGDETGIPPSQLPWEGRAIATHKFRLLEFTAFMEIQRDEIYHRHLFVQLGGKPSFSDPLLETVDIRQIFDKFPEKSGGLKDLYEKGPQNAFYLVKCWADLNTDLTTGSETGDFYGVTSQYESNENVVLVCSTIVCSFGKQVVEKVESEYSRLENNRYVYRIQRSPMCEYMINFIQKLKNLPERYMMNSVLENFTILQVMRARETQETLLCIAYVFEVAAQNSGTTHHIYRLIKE

For test [1], the target named is 3xFLAG-Sd (Scalloped) (Drosophila melanogaster) (UniProt P30052). The test can be described thus: co-IP; S2 cells expressing 3xFLAG-Sd or 3xFLAG-Sd mNLS^N+C lysed in RIPA buffer (50 mM Tris-HCl, 150 mM NaCl, 1% NP-40, 0.5% deoxycholic acid, 0.1% SDS); lysate incubated with anti-FLAG M2 affinity gel 2 h at 4°C; western blot with anti-FLAG or anti-Importin-α3; mock transfection with water as control.

The target of test [2] is 3xFLAG-Sd mNLS^N+C (Drosophila melanogaster) (UniProt P30052). Described as above.

No constants are given. Whether binding was seen depends on the method and setting. Binding seen in cells or lysates may run through a third protein. Some results given as binding are weak or reduced against the parent protein; the word gives no strength.

B1: Importin-α3 (protein, UniProt Q9V455 1-514)
chain: MTSMEQNRLQNFKNKGKDQDEMRRRRNEVTVELRKNKREETILKRRNVPNLDSNTDEEEQLSSSIDLKKLAKAAADATKPEQQLAAVQAARKLLSSDKNPPINDLIQSDILPILVECLKQHNHTMLQFEAAWALTNIASGTSAQTNEVVAAGAVPLFLQLLNSPAPNVCEQAVWALGNIIGDGPLLRDFVIKHGVVQPLLSFIKPDIPITFLRNVTWVIVNLCRNKDPAPPTATIHEILPALNVLIHHTDTNILVDTVWAISYLTDGGNDQIQMVIESGVVPKLIPLLGNSEVKVQTAALRAVGNIVTGSDEQTQVVLNYDALSYFPGLLSHPKEKIRKEAVWFLSNITAGNQSQVQAVINVGLLPKIIENLSKGEFQTQKEAAWAISNLTISGNREQVFTLIKEGVIPPFCDLLSCQDTQVINVVLDGLNNMLKVADSHVEAVANCIEECEGLAKIERLQSHENVEIYKLAYEIIDQYFTDEGEQTNMAPTSDGAQYNFDPHADRLTMNSFNF
Consider B1, for which the binding entry in test [1] is “binds”; in test [2], “binds weakly”.
